{"source": "PubChem BioAssay AID1259254 (NCATS, 2017)", "test": "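Genome-wide screen for genes that prevent DNA re-replication in cancer cells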 (primary screen)", "cell system": "human HCT116 colorectal cancer cells", "knock-down reagent": "single siRNA against human genes", "timing": "3 days", "measured": "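Imaged Hoechst DNA stain sorts each cell into a cycle phase by DNA amount; per plate, G2 fraction set to 0% for non-targeting and 100% for GMNN siRNA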", "reading the numbers": "G2 robust z-score and G2 cells, % of GMNN control: higher = more G2 cells, more excess DNA replication", "rule for the call": "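An siRNA counts as active if its G2 robust z-score lies at least 5 MADs above the screen median; here such calls match roughly 38% of GMNN control or more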", "note": "The whole screen tested about 59,000 reagents; this is a random part of them. Over the whole deposit, about 1,550 (2.6%) are marked active. 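G2 share is only a proxy for re-replication; each gene was hit by three separate siRNAs, and active genes were retested.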 Entries without a mark were called inactive. Reagents against one gene are numbered here. Not all columns of the deposit are shown. Reagent sequences are not shown. The record does not give: the amount of reagent."}
{"target": "CTSF (cathepsin F)", "reagent no.": 1, "G2 robust z-score": -0.522, "G2 cells, % of GMNN control": -0.704}
{"target": "CTSF (cathepsin F)", "reagent no.": 2, "G2 robust z-score": -0.527, "G2 cells, % of GMNN control": -0.742}
{"target": "CTSF (cathepsin F)", "reagent no.": 3, "G2 robust z-score": -0.0416, "G2 cells, % of GMNN control": 2.67}
{"target": "SPMIP10 (sperm microtubule inner protein 10)", "reagent no.": 1, "G2 robust z-score": -0.244, "G2 cells, % of GMNN control": 1.25}
{"target": "SPMIP10 (sperm microtubule inner protein 10)", "reagent no.": 2, "G2 robust z-score": -1.02, "G2 cells, % of GMNN control": -4.19}
{"target": "SPMIP10 (sperm microtubule inner protein 10)", "reagent no.": 3, "G2 robust z-score": -1.15, "G2 cells, % of GMNN control": -5.15}
{"target": "TOR1B (torsin family 1 member B)", "reagent no.": 1, "G2 robust z-score": -0.58, "G2 cells, % of GMNN control": -1.12}
{"target": "TOR1B (torsin family 1 member B)", "reagent no.": 2, "G2 robust z-score": 1.35, "G2 cells, % of GMNN control": 12.5}
{"target": "TOR1B (torsin family 1 member B)", "reagent no.": 3, "G2 robust z-score": 3.37, "G2 cells, % of GMNN control": 26.7}
{"target": "IL18BP (interleukin 18 binding protein)", "reagent no.": 1, "G2 robust z-score": -0.534, "G2 cells, % of GMNN control": -0.79}
{"target": "IL18BP (interleukin 18 binding protein)", "reagent no.": 2, "G2 robust z-score": 0.04, "G2 cells, % of GMNN control": 3.25}
{"target": "IL18BP (interleukin 18 binding protein)", "reagent no.": 3, "G2 robust z-score": 2.9, "G2 cells, % of GMNN control": 23.4}
{"target": "NUP210L (nucleoporin 210 like)", "reagent no.": 1, "G2 robust z-score": -0.354, "G2 cells, % of GMNN control": 0.477}
{"target": "NUP210L (nucleoporin 210 like)", "reagent no.": 2, "G2 robust z-score": -1.21, "G2 cells, % of GMNN control": -5.52}
{"target": "NUP210L (nucleoporin 210 like)", "reagent no.": 3, "G2 robust z-score": -0.755, "G2 cells, % of GMNN control": -2.35}
{"target": "FLRT3 (fibronectin leucine rich transmembrane protein 3)", "reagent no.": 1, "G2 robust z-score": -1.04, "G2 cells, % of GMNN control": -4.36}
{"target": "FLRT3 (fibronectin leucine rich transmembrane protein 3)", "reagent no.": 2, "G2 robust z-score": -1.54, "G2 cells, % of GMNN control": -7.88}
{"target": "FLRT3 (fibronectin leucine rich transmembrane protein 3)", "reagent no.": 3, "G2 robust z-score": 0.321, "G2 cells, % of GMNN control": 5.23}

Records above whose target name starts with T or t (3):
{"target": "TOR1B (torsin family 1 member B)", "reagent no.": 1, "G2 robust z-score": -0.58, "G2 cells, % of GMNN control": -1.12}
{"target": "TOR1B (torsin family 1 member B)", "reagent no.": 2, "G2 robust z-score": 1.35, "G2 cells, % of GMNN control": 12.5}
{"target": "TOR1B (torsin family 1 member B)", "reagent no.": 3, "G2 robust z-score": 3.37, "G2 cells, % of GMNN control": 26.7}
